# According to the supplement of paper PMC4604168 (melanoma cell lines):
# This is one part of the list. Single values are uncertain, as repeats are few or missing.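 Imaging used 1,536-well plates; nuclei positive for cleaved PARP by antibody were divided by total DNA-stained nuclei to yield the apoptosis fraction. Doses for screening kept most cells viable, and cell lines differ markedly in resting and induced cleaved-PARP levels.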
# Key:
# Assay in all cases: cleaved PARP positive nuclei fraction relative to DMSO control; melanoma cells; higher = more apoptosis
# Conditions in all cases: library dose: low library concentration; 72 h
# [1] = test system: COLO792
# [2] = test system: COLO800
# [3] = test system: COLO829
# [4] = test system: G361
# [5] = test system: IPC-298
# [6] = test system: IST-MEL1
# [7] = test system: LB2518-MEL
# [8] = test system: LOXIMVI
# [9] = test system: MZ2-MEL
# [10] = test system: MeWo
# [11] = test system: RPMI7951
# [12] = test system: RVH-421
# [13] = test system: SkMel28
# [14] = test system: SkMel2
# [15] = test system: SkMel30
# [16] = test system: SkMel5
# [17] = test system: UACC257
# [18] = test system: UACC62
SMILES,cleaved PARP positive nuclei fraction [1],cleaved PARP positive nuclei fraction [2],cleaved PARP positive nuclei fraction [3],cleaved PARP positive nuclei fraction [4],cleaved PARP positive nuclei fraction [5],cleaved PARP positive nuclei fraction [6],cleaved PARP positive nuclei fraction [7],cleaved PARP positive nuclei fraction [8],cleaved PARP positive nuclei fraction [9],cleaved PARP positive nuclei fraction [10],cleaved PARP positive nuclei fraction [11],cleaved PARP positive nuclei fraction [12],cleaved PARP positive nuclei fraction [13],cleaved PARP positive nuclei fraction [14],cleaved PARP positive nuclei fraction [15],cleaved PARP positive nuclei fraction [16],cleaved PARP positive nuclei fraction [17],cleaved PARP positive nuclei fraction [18]
"Cc1ccc(Nc2nccc(N(C)c3ccc4c(C)n(C)nc4c3)n2)cc1S(N)(=O)=O [Pazopanib] + CCc1ccc(CCOc2ccc(CC3SC(=O)NC3=O)cc2)nc1 [pioglitazone] (first compound 0.4 µM, partner dose 2 µM)",111%,97.8%,74.6%,21.7%,73.3%,83.2%,63.9%,78.6%,172%,28.8%,72.5%,69.5%,148%,54.7%,98.4%,94.4%,143%,144%
"Cc1ccc(Nc2nccc(N(C)c3ccc4c(C)n(C)nc4c3)n2)cc1S(N)(=O)=O [Pazopanib] + COc1cc2ncnc(Nc3ccc(Oc4ccccc4)cc3)c2cc1OC [SrcI1] (first compound 0.4 µM, partner dose 2 µM)",86.2%,32.9%,42.2%,200%,112%,116%,58.5%,217%,92.1%,29.2%,34%,112%,194%,152%,50.7%,76.7%,163%,134%
"O=c1[nH]nc(Sc2ncc([N+](=O)[O-])s2)n1-c1ccc2c(c1)OCCO2 + COc1ccc2c(c1)CCC1C2CCC2(C)C(NCCCCCCN3C(=O)C=CC3=O)CCC12 [U73122] (first compound 0.2 µM, partner dose 0.4 µM)",82.3%,112%,71.7%,37.3%,47.2%,138%,202%,42.1%,336%,65.6%,33.1%,39.3%,58.3%,112%,152%,37.6%,113%,101%
"CC[C@]1(O)C[C@H]2CN(CCc3c([nH]c4ccccc34)[C@@](C(=O)OC)(c3cc4c(cc3OC)N(C=O)[C@H]3[C@@](O)(C(=O)OC)[C@H](OC(C)=O)[C@]5(CC)C=CCN6CC[C@]43[C@@H]65)C2)C1 [vincristine] + COc1cc2ncnc(Nc3ccc(Oc4ccccc4)cc3)c2cc1OC [SrcI1] (first compound 0.0001 µM, partner dose 2 µM)",48.6%,99.9%,318%,75.1%,95.1%,153%,64.7%,101%,101%,249%,71.1%,93.7%,2730%,116%,111%,99.3%,907%,463%
"CCCCCCCCCCCCCCCCCCOP(=O)([O-])OC1CC[N+](C)(C)CC1 [Perifosine] + O=c1cc(-c2cccc3c2Sc2ccccc2S3)oc(N2CCOCC2)c1 [KU55933] (first compound 0.4 µM, partner dose 1 µM)",97%,66.4%,151%,135%,198%,82.8%,63.8%,69.3%,167%,43%,266%,140%,149%,46.5%,133%,76.6%,81.6%,158%
"Cc1cn(-c2cc(NC(=O)c3ccc(C)c(Nc4nccc(-c5cccnc5)n4)c3)cc(C(F)(F)F)c2)cn1 [nilotinib] + O=c1cc(-c2cccc3c2Sc2ccccc2S3)oc(N2CCOCC2)c1 [KU55933] (first compound 0.2 µM, partner dose 1 µM)",77.7%,68.9%,48.9%,126%,34.6%,117%,28.5%,50.8%,180%,240%,166%,48.9%,187%,75.7%,24%,238%,141%,37.6%
"Cc1cc(Nc2cc(N3CCN(C)CC3)nc(Sc3ccc(NC(=O)C4CC4)cc3)n2)n[nH]1 [Tozasertib] + O=S(=O)(c1ccccc1)N(CC(F)(F)F)c1ccc(C(O)(C(F)(F)F)C(F)(F)F)cc1 [T0901317] (first compound 0.006 µM, partner dose 1.4 µM)",61.8%,57.6%,117%,149%,66.6%,68.2%,48.2%,68%,159%,182%,117%,114%,116%,100%,119%,85.4%,120%,86.5%
"O=C(Nc1cc(C(F)(F)F)cc(C(F)(F)F)c1)c1cc(Cl)ccc1O + Oc1cc(-c2nc(-c3ccccc3)[nH]c2-c2ccncc2)ccc1Cl [L779450] (first compound 0.016 µM, partner dose 0.2 µM)",210%,153%,97.3%,171%,85.2%,148%,81.9%,45%,93%,124%,29.7%,222%,149%,110%,85.5%,67%,173%,218%
"CC[C@]1(O)C[C@H]2CN(CCc3c([nH]c4ccccc34)[C@@](C(=O)OC)(c3cc4c(cc3OC)N(C=O)[C@H]3[C@@](O)(C(=O)OC)[C@H](OC(C)=O)[C@]5(CC)C=CCN6CC[C@]43[C@@H]65)C2)C1 [vincristine] + CCN(CC)CCCCNc1ncc2cc(-c3cc(OC)cc(OC)c3)c(NC(=O)NC(C)(C)C)nc2n1 [PD173074] (first compound 0.0001 µM, partner dose 0.1 µM)",219%,85.3%,160%,79.6%,227%,74%,64.4%,151%,85.9%,70.6%,126%,61.8%,125%,94.3%,244%,158%,64.4%,66.7%
"O=c1[nH]nc(Sc2ncc([N+](=O)[O-])s2)n1-c1ccc2c(c1)OCCO2 + CCc1ccc(CCOc2ccc(CC3SC(=O)NC3=O)cc2)nc1 [pioglitazone] (first compound 0.2 µM, partner dose 2 µM)",53.2%,32.3%,151%,54.4%,43.3%,237%,64.2%,168%,82.2%,82.4%,78.4%,43.5%,72.4%,43.7%,49.4%,78.3%,293%,76.6%
"COc1cc([C@@H]2c3cc4c(cc3[C@@H](O[C@@H]3O[C@@H]5CO[C@@H](C)O[C@H]5[C@H](O)[C@H]3O)[C@H]3COC(=O)[C@H]23)OCO4)cc(OC)c1O [etoposide] + COc1ccc(-c2ccc3c(N4CCOCC4)nc(N4C[C@@H](C)O[C@@H](C)C4)nc3n2)cc1CO [KU0063794] (first compound 0.02 µM, partner dose 0.02 µM)",129%,86.5%,194%,69.8%,92.1%,191%,152%,87.3%,68%,39.9%,66.7%,42.8%,219%,120%,102%,168%,115%,236%
"O=c1[nH]nc(Sc2ncc([N+](=O)[O-])s2)n1-c1ccc2c(c1)OCCO2 + Oc1nc(-c2ccc(C(F)(F)F)cc2)nc2c1CSCC2 [XAV939] (first compound 0.2 µM, partner dose 2 µM)",55.8%,65.1%,52%,87.8%,31.4%,119%,69.5%,121%,136%,62.2%,68.2%,211%,47.2%,118%,69.6%,93.8%,105%,327%
"Cc1cn(-c2cc(NC(=O)c3ccc(C)c(Nc4nccc(-c5cccnc5)n4)c3)cc(C(F)(F)F)c2)cn1 [nilotinib] + Oc1cc(-c2nc(-c3ccccc3)[nH]c2-c2ccncc2)ccc1Cl [L779450] (first compound 0.2 µM, partner dose 0.2 µM)",133%,102%,113%,158%,44.4%,57.8%,149%,74.2%,38.9%,98.7%,40.7%,149%,305%,3820%,151%,140%,137%,197%
"Cc1cn(-c2cc(NC(=O)c3ccc(C)c(Nc4nccc(-c5cccnc5)n4)c3)cc(C(F)(F)F)c2)cn1 [nilotinib] + Oc1nc(-c2ccc(C(F)(F)F)cc2)nc2c1CSCC2 [XAV939] (first compound 0.2 µM, partner dose 2 µM)",45.6%,150%,50.1%,90.2%,48%,82.7%,358%,39.9%,73.1%,102%,154%,91.2%,63.7%,134%,65.7%,92.3%,106%,156%
"N#CC[C@H](C1CCCC1)n1cc(-c2ncnc3[nH]ccc23)cn1 [ruxolitinib] + COc1ccc2c(c1)CCC1C2CCC2(C)C(NCCCCCCN3C(=O)C=CC3=O)CCC12 [U73122] (first compound 1 µM, partner dose 0.4 µM)",197%,34.5%,73.4%,130%,46.5%,126%,61.4%,86.1%,160%,292%,137%,117%,61.9%,61.1%,63.8%,210%,147%,62.4%
"Cc1ccc(Nc2nccc(N(C)c3ccc4c(C)n(C)nc4c3)n2)cc1S(N)(=O)=O [Pazopanib] + Cn1cc(/C=C2\C(=O)Nc3cccnc32)c2ccccc21 [GW441756] (first compound 0.4 µM, partner dose 0.4 µM)",71.9%,46.9%,71.2%,91.4%,53.4%,171%,36.4%,126%,29.7%,122%,47.8%,99.1%,127%,42.3%,37.7%,88.2%,76.3%,146%
"CC[C@]1(O)C[C@H]2CN(CCc3c([nH]c4ccccc34)[C@@](C(=O)OC)(c3cc4c(cc3OC)N(C=O)[C@H]3[C@@](O)(C(=O)OC)[C@H](OC(C)=O)[C@]5(CC)C=CCN6CC[C@]43[C@@H]65)C2)C1 [vincristine] + COc1ccc2c(c1)CCC1C2CCC2(C)C(NCCCCCCN3C(=O)C=CC3=O)CCC12 [U73122] (first compound 0.0001 µM, partner dose 0.4 µM)",79.8%,69.2%,80%,29.8%,91.9%,205%,76.1%,224%,110%,76.5%,250%,53.6%,21.3%,79.3%,76.7%,265%,208%,53.6%

# A second format for part of the listing above:
SMILES | cleaved PARP positive nuclei fraction [1] | cleaved PARP positive nuclei fraction [2] | cleaved PARP positive nuclei fraction [3] | cleaved PARP positive nuclei fraction [4] | cleaved PARP positive nuclei fraction [5] | cleaved PARP positive nuclei fraction [6] | cleaved PARP positive nuclei fraction [7] | cleaved PARP positive nuclei fraction [8] | cleaved PARP positive nuclei fraction [9] | cleaved PARP positive nuclei fraction [10] | cleaved PARP positive nuclei fraction [11] | cleaved PARP positive nuclei fraction [12] | cleaved PARP positive nuclei fraction [13] | cleaved PARP positive nuclei fraction [14] | cleaved PARP positive nuclei fraction [15] | cleaved PARP positive nuclei fraction [16] | cleaved PARP positive nuclei fraction [17] | cleaved PARP positive nuclei fraction [18]
Cc1cn(-c2cc(NC(=O)c3ccc(C)c(Nc4nccc(-c5cccnc5)n4)c3)cc(C(F)(F)F)c2)cn1 [nilotinib] + O=c1cc(-c2cccc3c2Sc2ccccc2S3)oc(N2CCOCC2)c1 [KU55933] (first compound 0.2 µM, partner dose 1 µM) | 77.7% | 68.9% | 48.9% | 126% | 34.6% | 117% | 28.5% | 50.8% | 180% | 240% | 166% | 48.9% | 187% | 75.7% | 24% | 238% | 141% | 37.6%
COc1cc([C@@H]2c3cc4c(cc3[C@@H](O[C@@H]3O[C@@H]5CO[C@@H](C)O[C@H]5[C@H](O)[C@H]3O)[C@H]3COC(=O)[C@H]23)OCO4)cc(OC)c1O [etoposide] + COc1ccc(-c2ccc3c(N4CCOCC4)nc(N4C[C@@H](C)O[C@@H](C)C4)nc3n2)cc1CO [KU0063794] (first compound 0.02 µM, partner dose 0.02 µM) | 129% | 86.5% | 194% | 69.8% | 92.1% | 191% | 152% | 87.3% | 68% | 39.9% | 66.7% | 42.8% | 219% | 120% | 102% | 168% | 115% | 236%
